About 1,800 (2.3%) of roughly 78,000 compounds were called active. The inconclusive results got no clear call from the source; some entries with a clear call stand among them for comparison. Cut-off read from the data, not from the text of the source: active = inhibition above about 30%; inconclusive = mostly about 10% to 28%; inactive = weaker than that.
target: Interleukin-1 receptor-like 1 (Homo sapiens) (UniProt Q01638); experiment: blocks human ST2 binding to IL-33, primary screen, biochemical, AlphaLISA (AID 1259354); conditions: AlphaLISA ST2-Fc/biotin-IL-33 interaction, 1 h; at 17 µM, active compounds read high

By UniProt entry, the sequences of proteins in these tests, tags left out. Where a name states a change or a piece, a line headed by the entry shows the natural chain unless it says otherwise.
UniProt Q01638: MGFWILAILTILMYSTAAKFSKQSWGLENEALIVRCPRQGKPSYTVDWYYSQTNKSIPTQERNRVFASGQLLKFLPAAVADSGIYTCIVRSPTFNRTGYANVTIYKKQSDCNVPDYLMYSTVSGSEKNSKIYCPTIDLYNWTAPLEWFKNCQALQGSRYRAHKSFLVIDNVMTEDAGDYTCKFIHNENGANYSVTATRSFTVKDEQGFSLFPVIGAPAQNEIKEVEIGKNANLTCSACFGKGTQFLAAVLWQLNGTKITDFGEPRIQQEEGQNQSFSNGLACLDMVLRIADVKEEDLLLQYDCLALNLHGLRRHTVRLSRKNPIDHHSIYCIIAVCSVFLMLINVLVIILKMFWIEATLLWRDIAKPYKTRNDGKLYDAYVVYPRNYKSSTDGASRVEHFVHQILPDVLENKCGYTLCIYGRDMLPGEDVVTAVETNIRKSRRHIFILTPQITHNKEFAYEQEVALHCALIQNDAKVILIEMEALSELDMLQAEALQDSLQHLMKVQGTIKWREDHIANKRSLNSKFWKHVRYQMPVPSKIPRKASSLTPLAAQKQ

| Structure (SMILES) | inhibition |
| --- | --- |
| Nc1c(C(=O)N2CCOCC2)sc2nc3c(cc12)CCCCC3 | inconclusive: 17% |
| CCN1CCCC1CNC(=O)CCC(=O)Nc1ccc2nc(N3CCCCC3)cc(C)c2c1 (centres undefined) | inconclusive: 10% |
| O=[N+]([O-])c1ccc(-c2cnc3ccccc3n2)cc1 | active: 31% |
| CCC1CCCCN1CC(=O)N1CCCc2c1c(=O)oc1ccc(OCc3ccccc3)cc21 (centres undefined) | inconclusive: 11% |
| COc1ccc(C(=O)N(Cc2ccccc2)Cc2ccccc2)cc1OC | inactive |
| CC(C)(C)n1cnc2cc(NCc3ccccc3O)ccc21 | inconclusive: 21% |
| C=C(C)C1OC1c1c(OC)ccc2ccc(=O)oc12 (centres undefined) | inconclusive: 17% |
| Cc1cc(C)n2nc(C(=O)N3CCCC(O)(CO)C3)cc2n1 (centres undefined) | inconclusive: 24% |
| Cc1cccn2c(=O)c3cc(C(=O)Nc4ccc(Cl)cc4)n(C)c3nc12 | inconclusive: 11% |
| COc1ccc(N2CCN(C(=O)c3ccc(CN(c4ccccc4)S(C)(=O)=O)cc3)CC2)cc1 | inconclusive: 17% |
| CC(O)/C=C/C1OC(=O)CC1Nc1ccc(C(=O)O)cc1 (centres undefined) | inconclusive: 15% |
| COc1cccc(F)c1-c1c(-c2ccccc2)ncn1Cc1csc(N)n1 | inconclusive: 14% |
| O=C1CCCC2=C1C(c1c(F)cccc1Cl)Nc1ccccc1N2 (centres undefined) | inconclusive: 18% |
| O=C(CN1C(=O)/C(=C\c2ccc(Cl)cc2)Sc2ccccc21)NC1CCCCC1 | inconclusive: 19% |
| COCc1nc(C)c(CNC(=O)CC2CCc3ccccc32)s1 (centres undefined) | inactive |
| Cc1ccc2c(C)c(C(=O)N3CCCCC3CCc3ccccn3)oc2c1C (centres undefined) | inactive |
| COc1ccc(C2CC(=O)n3nc(-c4ccc(C)cc4)nc3S2)cc1 (centres undefined) | inactive |
| Cc1ccc2nc(NC(=O)c3ccc(NS(=O)(=O)c4cccs4)cc3)sc2c1 | inconclusive: 14% |
| CC(=O)N[C@H]1CCN(C(=O)C[C@@H]2[C@H](O)CC[C@@H]3[C@]4(C)CO[C@@H](CNC(=O)c5cc(C)on5)O[C@@H]4CC[C@]32C)C1 | inconclusive: 23% |
| CN(C)c1ccc(C(=O)Nc2nc3c(ccc4ccccc43)s2)cc1 | inactive |
| N#CC1=C(N)Oc2[nH]c(=O)[nH]c(=O)c2C1c1ccccc1 (centres undefined) | inactive |
| COc1ccc(-c2nc3cc(N=Cc4cccc(OC)c4O)ccc3o2)cc1 | active: 43% |
| CC(NC(=O)C1(c2ccc(Cl)cc2)CCC1)c1cnn(C)c1 (centres undefined) | inconclusive: 12% |
| Cc1ccc(S(=O)(=O)NC(C)C(c2cccs2)N2CCN(c3ccc(F)cc3)CC2)cc1 (centres undefined) | inconclusive: 10% |

| Structure (SMILES) | inhibition |
| --- | --- |
| Cc1ccc(CNC(=O)CSc2c3c(nc4cc(Cl)ccc24)CCCC3)o1 | inconclusive: 19% |
| c1ccc(CCc2nc(CCn3nnc(-c4ccccc4)n3)n[nH]2)cc1 | inactive |
| CCN(CC)S(=O)(=O)c1cc(C(=O)NC2CCCCC2)ccc1C | inconclusive: 13% |
| FC(F)(F)Oc1ccc(CN2CC[C@H](c3nc4ccccc4o3)C2)cc1 | inactive |
| COc1ccc(Nc2c3c4c(c(Br)ccc4n(C)c2=O)C(=O)c2ccccc2-3)cc1 | inconclusive: 27% |
| Cc1cc(NC(=O)C2CCCCC2)nc2c1c(=O)oc1ccccc12 | inconclusive: 10% |
| O=C(CN1C(=O)/C(=C\c2cccc(Cl)c2)Sc2ccccc21)NCc1ccco1 | inconclusive: 21% |
| COC(=O)C1C(=O)C2=C(CC1C)NC(C)=C(C(=O)OC1CCCC1)C2c1ccc(N(C)C)cc1 (centres undefined) | inconclusive: 16% |
| O=C(Nc1ccc2c(c1)OCO2)c1noc2c1CCCCC2 | inconclusive: 16% |
| CN(C)c1nc2c(c(=O)[nH]1)CCN(C(=O)COc1ccccc1Cl)C2 | inconclusive: 13% |
| Cc1cccnc1C(NC(=O)COc1c(C)ccc(C)c1C)C1CC1 (centres undefined) | inconclusive: 16% |
| O=C1C2C3C=CC(CC3)C2C(=O)N1c1ccc(Br)cc1[N+](=O)[O-] (centres undefined) | inconclusive: 18% |
| COc1ccc2cc3cc(C(=O)N4CCCC4)oc3nc2c1 | inconclusive: 14% |
| O=C(C1CC1)N1CCc2cc(S(=O)(=O)NCc3ccc4c(c3)OCO4)ccc21 | active: 36% |
| O=c1[nH]c(Sc2c([N+](=O)[O-])cc(Br)c3nsnc23)nc2ccccc12 | inconclusive: 27% |
| O=c1cc(CCn2cccn2)nc(-c2ccc(CN3CCC[C@@H]3CO)cc2)[nH]1 | inactive |
| CC(C)Oc1ccc(CC2CC(=O)NC2=O)cc1 (centres undefined) | inconclusive: 13% |
| CCCn1cnc2c1CN(C(=O)c1ccc(C(F)(F)F)cc1)[C@H](C(=O)OC)C2 | inactive |
| O=C(CSc1nc2c(c(=O)n1-c1ccc(Br)cc1)SCC2)Nc1ccccc1 | inconclusive: 16% |
| CCCOC(=O)COc1ccc2c(=O)c(Oc3cccc(C)c3)coc2c1 | inconclusive: 10% |
| Cc1cc(=O)[nH]c(SC(C)C(=O)N2CC3CC4CC2C[C@@H](C4)C3)n1 (some centres undefined) | inconclusive: 13% |
| CS(=O)(=O)N(CC(=O)N1CCCCCC1)c1ccc(Cl)c(C(F)(F)F)c1 | inactive |
| CC/C=C(\C)CN1CCC(CNC(=O)c2occc2C)C1 (centres undefined) | inactive |
| COc1cccc(-c2ccc(C(=O)c3ncc[nH]3)cc2)c1OC | inconclusive: 17% |

| Structure (SMILES) | inhibition |
| --- | --- |
| CCOc1cc(C(=O)O/N=C(/N)c2ccncc2)cc(OCC)c1OCC | inconclusive: 13% |
| COc1ccc(-n2c(C)c([N+](=O)[O-])c3ccc(O)cc32)cc1 | inactive |
| CCN(CC)CC(=O)Nc1ccc2c(c1)Nc1ccccc1CC2 | inconclusive: 26% |
| NC(=O)CNC(=O)C1=C[C@@H](Oc2cc(F)ccc2Br)[C@H](O)[C@H](O)C1 | inconclusive: 15% |
| O=C(Nc1cccnc1Cl)c1nn2c(c1Cl)NC(c1ccco1)CC2C(F)(F)F (centres undefined) | inactive |
| Cc1cc(C)nc(CN2CCC3(CCCO3)CCC2=O)n1 (centres undefined) | inconclusive: 14% |
| O=C(Nc1ccccc1)C(=O)N1CCC(c2[nH]ncc2-c2ccccc2)CC1 | inconclusive: 11% |
| O=[N+]([O-])c1cccc(-c2noc(C(F)(F)F)n2)c1 | inconclusive: 15% |
| COc1nc2ccccc2cc1-c1cnccc1N | inactive |
| O=S(=O)(Nc1nccs1)c1ccc(N=Cc2cc(Cl)cc(Cl)c2O)cc1 | inconclusive: 12% |
| O=C1O/C(=C\c2ccccc2)c2ccccc21 | inconclusive: 24% |
| COc1cccc(-c2cc(CN3Cc4ncccc4C3=O)no2)c1 | inconclusive: 15% |
| Cc1ccccc1-c1nc2cc(NC(=O)c3cc([N+](=O)[O-])cc([N+](=O)[O-])c3)ccc2o1 | inactive |
| COc1ccc(OC)c(N2C(=O)C3C(C2=O)[C@H]2C=C[C@@H]3CC2)c1 (some centres undefined) | inconclusive: 21% |
| C=CCOc1ccccc1C(=O)N1CC[C@H](O)[C@@H](O)C1 | inconclusive: 17% |
| CN(C)CCOC(=O)c1ccc(N2Cc3ccccc3C2=N)cc1 | inactive |
| O=C(CSc1nccn1Cc1ccccc1)c1ccc(F)cc1 | inactive |
| CC(C)c1ccc(S(=O)(=O)N=C2C=CC(=O)c3ccccc32)cc1 | active: 45% |
| O=C(c1ccccc1)c1ccc(NC(=O)c2ccccc2F)c(NC(=O)c2ccccc2F)c1 | inconclusive: 16% |
| C=CCSc1nc(-c2ccccc2)ccc1C#N | inactive |
| Cc1cccn2c(=O)c3cc(C(=O)NC4CCCC4)c(=N)n(CCCn4ccnc4)c3nc12 | inconclusive: 18% |
| Cc1[nH]nc2c1C(c1cc(Br)cs1)C(C#N)=C(N)O2 (centres undefined) | active: 33% |
| CC1CCCCN1C(=O)c1cc2nc(-c3cccs3)cc(C(F)(F)Cl)n2n1 (centres undefined) | inconclusive: 25% |
| CCOc1cc(C2C(C(=O)OC(C)C)=C(C)NC3=C2C(=O)C(C(=O)OC)C(C)C3)ccc1O (centres undefined) | inactive |

Of the compounds above, 3 have a cyano group:

| Structure (SMILES) | inhibition |
| --- | --- |
| N#CC1=C(N)Oc2[nH]c(=O)[nH]c(=O)c2C1c1ccccc1 (centres undefined) | inactive |
| C=CCSc1nc(-c2ccccc2)ccc1C#N | inactive |
| Cc1[nH]nc2c1C(c1cc(Br)cs1)C(C#N)=C(N)O2 (centres undefined) | active: 33% |

Carrying on.

| Structure (SMILES) | inhibition |
| --- | --- |
| CC(c1cccnc1)N(C)Cc1ccc(-n2cncn2)cc1 (centres undefined) | inactive |
| NC(N)=N/N=C\c1c(Cl)cccc1Cl | inconclusive: 11% |
| CCCCOc1ccc(/C=c2\sc3ncnn3c2=O)cc1OC | inactive |
| CCC1=C(c2ccc(OC)cc2)S(=O)(=O)N(CC(=O)NCCC(C)C)C1=O | inconclusive: 10% |
| Cc1c(C(=O)N2CCCn3nc(C(=O)NC4CC4)cc3C2)cnc2ccnn12 | inconclusive: 11% |
| CC(=O)c1ccn(CC(=O)Nc2ccnn2CC2CCCCC2)n1 | inactive |
| COc1ccc(OC)c2sc(N3CCc4ccccc4C3)nc12 | inconclusive: 16% |
| COc1ccc(OC)c(C2SCCN2S(=O)(=O)c2cccc([N+](=O)[O-])c2)c1 (centres undefined) | inconclusive: 15% |
| Cn1ccc2c(-c3ccccc3C(N)=O)ccnc21 | inactive |
| COc1ccc(Cc2nc3cc(C)c(C)cc3[nH]c2=O)cc1Br | active: 31% |
| O=C(CSc1cn(Cc2ccc(Cl)cc2)c2ccccc12)NCc1ccco1 | inactive |
| CCCOc1ccccc1/C=C1\C(=O)Nc2ccc(Br)cc21 | inconclusive: 22% |
| CC(=O)Nc1ccc(Nc2nc(C)cc(N(C)C)n2)cc1 | inconclusive: 27% |
| COc1ccc(-c2cn(-c3cccc(SC)c3)c(=O)[nH]2)cc1 | inconclusive: 18% |
| COc1cccc(C(=O)Nc2cc(C)ccc2O)c1 | inactive |
| O=C(Nc1ccc(F)c(Cl)c1)N1CCC2(CCNCC2)C1 | inconclusive: 10% |
| CCn1c(=O)[nH]c2ccc(Br)cc2c1=O | inconclusive: 10% |
| O=C(Nc1ccccc1C1CC1)c1cccs1 | inconclusive: 11% |
| COc1ccc(C(=O)N2CC3(C)CN(C(=O)c4ccc(OC)cc4)CC(C)(C2)C3=O)cc1 | inactive |
| CSCc1noc(CNC2CCN(c3cccc(C)c3C)CC2)n1 | inconclusive: 18% |
| Cc1nccn1CCN(C)c1nc(-c2ccc(Cl)cc2)nc2c1CNC2 | inconclusive: 13% |
| CC(C)Cn1cc(C(=O)NC2CCCC(C)C2C)c2c3ccccc3n(C)c2c1=O (centres undefined) | inconclusive: 19% |

Reference: PubChem BioAssay AID1259354 (Paczesny and Yang Labs, IUPUI and University of Michigan, 2018)
